Measured values published in patent US7439226B2 (The United States of America as represented by the …, priority 2003, dated 2008).
HELM strings list residues between dots; [ac] is acetyl, [am] amide, other brackets name non-standard units.

Assay: general procedure: Fmoc solid-phase peptide synthesis; Fmoc-Gly-Rink acid resin (0.4 mmol/g); HBTU/HOBt
Conditions: cyclisation step, from the monocyclic peptide material

PEPTIDE1{G.R.[AllylGly].T.K.S.I.P.P.I.[AllylGly].F.P.D}$PEPTIDE1,PEPTIDE1,1:R1-14:R2|PEPTIDE1,PEPTIDE1,3:R3-11:R3$$$V2.0
cyclisation yield: 52%
